This is an account of results in paper doi:10.1101/2024.07.03.601867.

Chains of the proteins cited; added tags and fusions are not shown. Residues count along the entry.
UniProt P25106: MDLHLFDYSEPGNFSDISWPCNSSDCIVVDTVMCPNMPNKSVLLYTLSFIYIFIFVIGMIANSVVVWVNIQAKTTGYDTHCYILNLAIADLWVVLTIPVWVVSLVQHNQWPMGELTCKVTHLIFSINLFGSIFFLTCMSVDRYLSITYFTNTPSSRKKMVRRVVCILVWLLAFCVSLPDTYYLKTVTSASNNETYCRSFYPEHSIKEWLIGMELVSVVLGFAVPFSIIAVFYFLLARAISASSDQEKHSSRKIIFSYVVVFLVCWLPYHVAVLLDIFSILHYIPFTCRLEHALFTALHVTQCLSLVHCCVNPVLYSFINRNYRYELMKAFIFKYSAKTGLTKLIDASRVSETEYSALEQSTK
UniProt P40224, residues 22-93: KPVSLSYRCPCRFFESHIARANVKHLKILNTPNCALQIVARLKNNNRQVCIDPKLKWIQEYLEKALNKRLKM

This assay has as its target Flag-Human CXCR7(ACKR3)-Tango (human) (UniProt P25106). Nature of the assay: pull-down.

These are yes or no findings as the source states them, for the method shown. Binding seen in cells or lysates may run through a third protein. Some results given as binding are weak or reduced against the parent protein; the word gives no strength.

For “C-X-C motif chemokine 12 (Cxcl12) at the synaptosome surface (from UniProt P40224 22-93) (ligand)”, the binding result was “binds”.
